## Library screening results

The values are deposited in ChEMBL (CHEMBL3988442, “University of Dundee, Small-Polar-MMV Screening Library” (2021)).

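Viability assay of Plasmodium falciparum sporozoites; the read-out is not stated. The concentration is filed as 10 mM, unlikely as a test dose, so the dose is not known. The record gives no direction; compounds that gave an IC50 in retests scored well above the rest, so higher reads as lower viability. Strong results were mostly tested again. Size under these conditions: about 34,000 compounds, about 280 of them at 50% or above in at least one test.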

Results are given as percent effect. How 0% and 100% were set is not recorded. Most values in the screen are low, and negative values occur. This is an unselected part of the compounds tested. Two or more numbers in one place are separate tests of the same structure; such repeats can differ widely.

- CN(C)C(=O)CCCS(=O)(=O)Cc1cc(Cl)c2c(c1)OCO2 : -17.49% and -7.838% and -17.09%
- C[C@@H]1CN(C(=O)c2ccc[nH]2)C[C@]12CCN(CCN1CCCC1)C2=O.O=C(O)C(F)(F)F : 5.719%
- [H][C@@]12CC(=O)N(CC)[C@@]1([H])CCN2S(=O)(=O)c1ccc(OC)cc1 : 10.95%
- COCc1cnc2n1CCN(C(=O)c1oc3ccccc3c1C)C2C (stereo not given) : 11.84%
- O=C(O)C(F)(F)F.[H][C@@]12CCN(c3ccc(C)nn3)[C@@]1([H])CCN2C(=O)Cc1ccsc1 : 4.729%
- Cc1nn(CC(C)C)c(N(C)C)c1CNCc1ccc2c(c1)OCO2 : -0.9874%
- Cl.Cl.O=C([C@@H]1CSCN1)N1CC2(CCNCC2)c2cc(Cl)ccc21 : 10.7%
- CCc1nc(CN2CCOC(CNc3cccnn3)C2)cs1 (stereo not given) : 5.478%
- c1ccc(CCN2CCCC2c2ccnc(Nc3ncccn3)n2)cc1 (stereo not given) : 22.29%
- O=C(CCN1CCCC1C1CCCCC1)N1CCc2sccc2C1 (stereo not given) : -2.56%
- Cn1cnc2c1C(COCC1CC1)CN(C(=O)Cc1ccsc1)C2.O=C(O)C(F)(F)F (stereo not given) : -11.28%
- [H][C@@]12CN(Cc3ccoc3)CCO[C@]1([H])CN(C(=O)N1CCCC1)C2 : -6.51%
- N#CC1COCCN1S(=O)(=O)c1ccc2ccccc2c1 (stereo not given) : 3.842%
- CCNC(=O)c1ccnc(NCC2COc3cc(OC)ccc3C2)c1 (stereo not given) : 11.33%
- Cc1noc(C(C)N2CCN(CC(=O)N3CCOCC3)CC2)n1 (stereo not given) : 9.808%
- N#Cc1cc(S(N)(=O)=O)ccc1N1CCN(c2ccccc2)CC1 : -12.89%
- O=C(NCCc1nnc2n1CCC2)NCC1(c2ccccc2)CC1 : 3.312%
- Cc1nc2ccccc2nc1CN1CCCCC1Cn1cccn1 (stereo not given) : -6.02%
- CN1C(=O)CCCC12CCCN(C(=O)c1ccoc1)C2 (stereo not given) : 8.123%
- [H][C@]12CNCCN1C[C@@H](c1ccccc1)[C@@H]2C(=O)NC : -32.97%
- CCOc1cccc(CNC(=O)c2cnn(CC)c2C(F)(F)F)c1 : -0.6358%
- O=C1CC2(CCN(c3nncs3)C2)CN1c1ccccc1 (stereo not given) : -1.804%
- O=C(CN1CCOC(Cn2cccn2)C1)NCc1ccco1 (stereo not given) : 0.983%
- CSCC(=O)NS(=O)(=O)c1ccc2c(c1)OCCO2 : 2.416%
- CN1CCN(c2ncccc2CNc2ncccc2C#N)CC1 : 12.23%
- Cc1cc(CN2CCN(CC(O)c3ccc4c(c3)OCO4)CC2)no1 (stereo not given) : 8.577%
- CSCc1cccc(C(=O)N2CCN(CC(C)O)CC2)c1 (stereo not given) : -6.378%
- C[C@H]1CN(C(=O)c2cccnc2)C[C@@]12CCN(CCN1CCCC1)C2=O : 4.159%
- Cc1n[nH]c(C)c1-c1cnc(CC2CCN(C)C2)cn1 (stereo not given) : -7.497%
- CCOc1ncccc1C(=O)N1CCCCC1c1nccs1 (stereo not given) : 7.84%
- [H][C@@]12C[C@@H](O)CN1C[C@H](Cc1ccccc1)N(Cc1ccsc1)C2 : -5.453%
- CN1CCC2(CC1)CN(C(=O)c1cnccn1)Cc1ccccc12.O=C(O)C(F)(F)F : -10.11%
- O=C(Cn1cnc2cc3c(cc21)OCCCO3)NCCc1ccccc1 : 3.571% and -13.25% and -3.678%
- O=S(=O)(Cc1ccccc1)CC(O)Cn1cccn1 (stereo not given) : 27.23% and 48.03% and 48.6%
- CC(C)(C)c1cc(CN2CC[C@@H](NC(=O)c3cccnc3)[C@H](O)C2)n[nH]1 : -16.13%
- CCn1cc(S(=O)(=O)NCC2(N3CCOCC3)CCCCC2)c(C)n1 : 4.519%
- [H][C@@]12CS(=O)(=O)C[C@]1([H])N(C(=O)CCn1cc(Cl)cn1)CCN2CC1CC1 : -23.23%
- Cc1cnc(N2CCC3(CCCN(c4ccc(C)nn4)C3)C2)nc1 (stereo not given) : 1.59%
- CNC(=O)C1Cn2ccnc2C2(CCN(Cc3nccs3)CC2)O1.O=C(O)C(F)(F)F.O=C(O)C(F)(F)F (stereo not given) : 7.99%
- Cc1ccc(CN2CCC3(CC2)CC(c2cccnc2)C(=O)N3C)o1.O=C(O)C(F)(F)F.O=C(O)C(F)(F)F (stereo not given) : 0.6932%
- c1cncc(CN2CCC(c3n[nH]c(C4CC4)n3)CC2)c1 : 9.6%
- COc1ccccc1-c1cc(NC(=O)COCC2CC2)[nH]n1 : 4.44%
- [H][C@@]12COC[C@]1(COCc1cccc(C)n1)CN(C(=O)c1ccsc1)C2 : -16.01%
- Cc1cc(CN2CCN(C(=O)CCc3cccc(F)c3F)CC2)on1 : -7.882%
- CCCn1cc(CNCC(c2ccc(C)s2)N2CCOCC2)cn1 (stereo not given) : -4.009% and -0.5039% and 11.31%
- CCCc1n[nH]c(C2CN(CCc3cccs3)CCO2)n1 (stereo not given) : -5.739% and 6.393% and -0.5757%
- Cn1c(C(F)(F)F)nn(CCNC(=O)CSCc2ccccc2)c1=O : 1.299%

Some entries from above, unchanged:

* [H][C@@]12CS(=O)(=O)C[C@]1([H])N(C(=O)CCn1cc(Cl)cn1)CCN2CC1CC1 : -23.23%
* Cc1n[nH]c(C)c1-c1cnc(CC2CCN(C)C2)cn1 (stereo not given) : -7.497%
* CCn1cc(S(=O)(=O)NCC2(N3CCOCC3)CCCCC2)c(C)n1 : 4.519%
* CCOc1cccc(CNC(=O)c2cnn(CC)c2C(F)(F)F)c1 : -0.6358%
* Cc1cnc(N2CCC3(CCCN(c4ccc(C)nn4)C3)C2)nc1 (stereo not given) : 1.59%